Laboratory results: PubChem BioAssay AID1259308 (NCATS, 2017)
Shown is one part, drawn at random, of about 59,000 reagents. About 1,510 of all reagents (2.6%) were called active. 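Calls use total luciferase alone and ignore viability, so some active siRNAs may act by altering cell number.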 The numbers tell different reagents against one gene apart.

Purpose: 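Knock-downs that increase output of a recombinant reporter protein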 (primary screen)
Cells: human HEK293 embryonic kidney cells stably expressing firefly luciferase (HEK-CMV-Luc2-Hygro)
Reagent: single siRNA against human genes, 0.8 pmol siRNA per well
Duration: 72 h
Measured: 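Reporter luminescence and viable-cell signal on separate replicate plates, given as percent of non-targeting control and median/MAD z-scores, plus per-cell luciferase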
Reading the numbers: total luciferase, z-score and total luciferase, % of control: higher = more reporter protein produced; luciferase per cell, z-score: higher = more reporter output per viable cell; viable cells, % of control: higher = more viable cells
Active means: 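Active when the median/MAD z-score for overall luciferase is greater than 3; a gene was taken forward for validation with new siRNAs if at least two of its three siRNAs passed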
Meaning of the calls: active = raised luciferase; inactive = no rise

| gene knocked down | reagent | total luciferase, z-score | total luciferase, % of control | luciferase per cell, z-score | viable cells, % of control | outcome |
| --- | --- | --- | --- | --- | --- | --- |
| GTF2H1 | 1 | -0.22 | 77.5 | -0.275 | 93.1 | inactive |
| GTF2H1 | 2 | -1.04 | 61.1 | -1.56 | 103 | inactive |
| GTF2H1 | 3 | -0.907 | 63.9 | -0.867 | 89.7 | inactive |
| GET3 | 1 | 2.56 | 133 | 2.12 | 84.9 | inactive |
| GET3 | 2 | 1.31 | 108 | 1.14 | 89.5 | inactive |
| GET3 | 3 | -1.25 | 56.9 | -1.64 | 98.1 | inactive |
| ARHGAP30 | 1 | 0.146 | 84.8 | 0.191 | 90.1 | inactive |
| ARHGAP30 | 2 | 0.161 | 85.1 | -0.21 | 100 | inactive |
| ARHGAP30 | 3 | 0.454 | 90.9 | 0.46 | 90 | inactive |
| USP6NL | 1 | -0.52 | 71.5 | -0.378 | 88.3 | inactive |
| USP6NL | 2 | -0.0401 | 81.1 | -0.303 | 98.1 | inactive |
| USP6NL | 3 | 0.362 | 89.1 | -0.0544 | 101 | inactive |
| GABRA3 | 1 | 0.443 | 90.7 | 0.499 | 88.9 | inactive |
| GABRA3 | 2 | 2.26 | 127 | 2.1 | 81.5 | inactive |
| GABRA3 | 3 | -0.661 | 68.7 | -1.33 | 109 | inactive |
| SURF1 | 1 | 2.53 | 132 | 2.49 | 76.8 | inactive |
| SURF1 | 2 | -0.389 | 74.1 | -0.537 | 95.4 | inactive |
| SURF1 | 3 | 2.16 | 125 | 1.76 | 87.9 | inactive |
| TMEM106B | 1 | 0.698 | 95.8 | 0.729 | 88.3 | inactive |
| TMEM106B | 2 | 0.0443 | 82.8 | 0.408 | 83.1 | inactive |
| TMEM106B | 3 | 2.38 | 129 | 1.58 | 95.2 | inactive |
| RIN1 | 1 | -1.32 | 55.6 | -1.46 | 91.2 | inactive |
| RIN1 | 2 | 1.08 | 103 | 0.0651 | 114 | inactive |
| RIN1 | 3 | 0.492 | 91.7 | 0.552 | 88.6 | inactive |
